Library screen at single concentrations

Protein sequences, listed by entry. Tags and fused reporters are not part of them. Residues count along the entry.
UniProt A4I591, 1-473: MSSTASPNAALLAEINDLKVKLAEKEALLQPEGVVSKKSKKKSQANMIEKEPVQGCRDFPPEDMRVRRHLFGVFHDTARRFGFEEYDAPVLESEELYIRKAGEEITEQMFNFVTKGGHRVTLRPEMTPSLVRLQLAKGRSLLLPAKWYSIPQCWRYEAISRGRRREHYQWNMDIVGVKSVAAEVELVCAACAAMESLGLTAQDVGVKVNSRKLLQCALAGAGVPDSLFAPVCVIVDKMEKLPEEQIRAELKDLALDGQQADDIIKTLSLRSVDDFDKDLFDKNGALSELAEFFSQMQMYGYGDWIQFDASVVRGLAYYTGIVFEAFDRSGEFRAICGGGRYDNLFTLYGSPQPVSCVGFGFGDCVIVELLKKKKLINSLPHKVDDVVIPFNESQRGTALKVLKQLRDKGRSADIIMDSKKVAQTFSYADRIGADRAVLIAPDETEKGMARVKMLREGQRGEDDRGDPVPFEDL
UniProt Q4DA54, 1-478: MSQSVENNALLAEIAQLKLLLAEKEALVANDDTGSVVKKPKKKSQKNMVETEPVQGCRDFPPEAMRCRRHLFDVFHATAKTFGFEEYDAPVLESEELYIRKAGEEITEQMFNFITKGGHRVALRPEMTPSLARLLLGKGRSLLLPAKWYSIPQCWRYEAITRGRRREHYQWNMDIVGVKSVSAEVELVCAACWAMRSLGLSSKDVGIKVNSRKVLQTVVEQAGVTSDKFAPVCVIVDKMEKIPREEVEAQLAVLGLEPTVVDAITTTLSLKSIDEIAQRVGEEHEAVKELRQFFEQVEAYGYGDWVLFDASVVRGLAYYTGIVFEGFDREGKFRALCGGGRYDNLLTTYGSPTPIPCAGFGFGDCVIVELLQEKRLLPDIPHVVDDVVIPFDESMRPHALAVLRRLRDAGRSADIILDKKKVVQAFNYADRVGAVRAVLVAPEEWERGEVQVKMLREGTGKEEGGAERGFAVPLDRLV
UniProt Q8IDJ8, 1-583: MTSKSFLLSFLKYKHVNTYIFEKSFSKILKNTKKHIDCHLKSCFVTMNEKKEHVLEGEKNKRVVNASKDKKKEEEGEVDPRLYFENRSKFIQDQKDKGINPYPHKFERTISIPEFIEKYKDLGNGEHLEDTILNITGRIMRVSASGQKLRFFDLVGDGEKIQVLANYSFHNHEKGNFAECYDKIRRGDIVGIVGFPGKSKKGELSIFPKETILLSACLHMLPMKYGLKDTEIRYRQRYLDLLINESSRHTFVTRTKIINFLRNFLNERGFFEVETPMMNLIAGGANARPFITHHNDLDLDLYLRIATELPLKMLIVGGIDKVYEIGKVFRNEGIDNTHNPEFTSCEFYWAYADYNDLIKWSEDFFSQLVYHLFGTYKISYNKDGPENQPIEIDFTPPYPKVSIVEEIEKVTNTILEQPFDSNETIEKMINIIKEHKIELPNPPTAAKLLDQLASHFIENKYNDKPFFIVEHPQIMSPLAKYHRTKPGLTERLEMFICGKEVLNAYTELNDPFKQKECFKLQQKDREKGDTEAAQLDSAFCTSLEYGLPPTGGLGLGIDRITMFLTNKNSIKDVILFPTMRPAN

Measurements from “University of Dundee, Small-Polar-MMV Screening Library” (2021), ChEMBL document CHEMBL3988442.

A: 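Histidine-tRNA ligase, Leishmania infantum (UniProt A4I591). Enzyme assay of histidyl-tRNA synthetase; the read-out is not stated. Tested at 30 µM. Higher reads as stronger inhibition (inferred: compounds with an IC50 in retests scored well above the rest). The assay is labelled LdHisRS but filed under L. infantum. About 69,000 compounds were tested under these conditions; 0.6% (about 410) showed 50% or more at least once.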
B: 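Histidine-tRNA ligase, Trypanosoma cruzi CL Brener (UniProt Q4DA54). Enzyme assay of histidyl-tRNA synthetase; the read-out is not stated. Compounds at 30 µM. Direction is inferred from retests: higher values go with stronger inhibition. Size under these conditions: about 69,000 compounds, about 31 of them at 50% or above in at least one test.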
C: 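Enzyme assay of the cytosolic lysyl-tRNA synthetase in 384-well plates, read by luminescence. Target: Lysine-tRNA ligase, Plasmodium falciparum 3D7 (UniProt Q8IDJ8). Tested at 30 µM. Higher reads as stronger inhibition, judged from the few compounds that gave an IC50. Size under these conditions: about 69,000 compounds, about 49 of them at 50% or above in at least one test.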
D: 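Cell assay of Leishmania donovani living inside macrophages; the read-out is not stated. Compounds at 30 µM. Higher reads as stronger inhibition (inferred: compounds with an IC50 in retests scored well above the rest). Of about 69,000 compounds tested this way, about 1,000 (1.5%) reached 50% or more in at least one test.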

The filed quantity is “Percent Effect” (%). The controls that fix the scale are not given in the record; negative values are as filed. Compounds were drawn at random from those tested, without regard to their results. Two or more numbers in one place are separate tests of the same structure; such repeats can differ widely. A dash means the value is not listed here; it may have been measured.

| # | Compound | A | B | C | D |
|---|---|---|---|---|---|
| 1 | `CCC[C@@H]1CN(Cc2cnc3c(S(C)(=O)=O)cnn3c2)C[C@H]1N(C)C` | 11.76 | 9.877 | 5.428 | -0.1895 |
| 2 | `O=C(O)C(F)(F)F.[H][C@@]12CCN(C(=O)C(C)C)CC[C@]1(C(=O)N1CCOCC1)CCN2CC` | - | - | - | -5.732 |
| 3 | `COc1cccc([C@@]2(O)CC[C@@H]3CN(C(=O)c4c[nH]nc4C)C[C@@H]32)c1` | 1.399 | -2.26 | -0.5098 | - |
| 4 | `O=C1CC2(CCN(S(=O)(=O)C3CC3)C2)CN1c1cncnc1` (stereo not given) | 11.32 | 2.703 | 2.302 | 13.31 |
| 5 | `O=C(O)C(F)(F)F.[H][C@@]12OCCN(c3ncccn3)[C@@]1([H])CC[C@H]2OCC(=O)N(C)C` | - | - | - | -6.135 & -0.922 |
| 6 | `COCC(C)N1CCc2onc(-c3ccc(F)c(F)c3)c2C1` (stereo not given) | 17.5 | 6.763 | 2.206 | 17.42 |
| 7 | `Cc1cccc2[nH]c(C3CCCN3Cc3ccc(CO)o3)nc12` (stereo not given) | 12.5 | 8.511 | 1.822 | 20.32 |
| 8 | `Cc1cc(NC(=O)CN2CCN(c3nccs3)C(C)C2)no1` (stereo not given) | 14.29 | -6.977 | 3.153 | 8.044 |
| 9 | `O=C(O)C(F)(F)F.[H][C@@]12COC[C@]1(c1nc(C)no1)CN(Cc1cc(C)on1)C2` | - | - | - | -5.679 |
| 10 | `O=C(c1ccoc1)N1CC[C@@H]2[C@@H](CC1)OCCN2c1cccnc1` | 12.28 | 3.226 | -0.448 | - |
| 11 | `Fc1ccc(-c2nc(CN3CCCC3Cn3cncn3)co2)cc1` (stereo not given) | 3.571 | 6.34 | 0.4218 | -23.38 |
| 12 | `COCCn1cc(CC(=O)Nc2c(C)nn(C)c2C)c2ccccc21` | 22.92 | 7.292 | 4.784 | 6.413 |
| 13 | `O=C(O)C(F)(F)F.[H][C@@]12C[C@@H](OCc3ccccc3F)CN1CCN(C(=O)c1cnccn1)C2` | - | - | - | 13.18 |
| 14 | `Cn1cc(C(=O)OC2CN(c3nc4c(C(F)(F)F)cccc4s3)C2)nn1` | 19.51 | -5.288 | 4.433 | 15.05 |
| 15 | `Cc1n[nH]c(CN2CCN(c3ncnc4scc(C)c34)CC2)c1Cl` | 16 | 3.614 | 5.793 | 71.39 |
| 16 | `CC(=O)N1CCC(c2ccnc(Nc3cc(C(F)(F)F)ccn3)n2)C1` (stereo not given) | 2.837 | 7.143 | 0.09153 | 43.14 |
| 17 | `CC1=N[C@@]2(CC[C@@H]3CN(CC(C)C)C[C@@H]32)C(=O)N1CC(C)C` | 14.71 | 6.897 | 2.763 | - |
| 18 | `N#CCCCn1cnc2c(F)cc(Br)cc2c1=O` | 9.574 | 7.071 | -0.5397 | 9.524 |
| 19 | `OC1(c2cn(C3CCN(C4CCSC4)CC3)nn2)CCCC1` (stereo not given) | 19.67 | 4.04 | 2.358 | 31.43 |
| 20 | `Cn1cc(C(=O)NCc2cn3c(n2)CN(C2CCOCC2)CC3)cn1` | 12.35 | 1.84 | 1.877 | - |
| 21 | `O=C(O)c1cc2c(nc1-c1ccoc1)CCN(CC1CCOC1)CC2` (stereo not given) | 2.941 | 4.926 | 4.064 | - |
| 22 | `Cc1ncc2c(n1)CN(CC(=O)Nc1nccs1)CC2` | 16.96 | 5.78 | 0.8847 | 15.31 |
| 23 | `Cc1cc(C)n(CC2CCCCN2CCc2ccncc2)n1` (stereo not given) | -23.85 | 5.294 | -0.2802 | 28.78 |
| 24 | `CC(=O)N(Cc1noc(C)n1)C1CCN(CCOc2ccccc2)C1` (stereo not given) | 12.5 | 6.464 | 2.963 | 19.87 |
| 25 | `O=C(NCc1cc[nH]n1)NC1CCCN(c2ncccn2)C1` (stereo not given) | 20 | 5.435 | 4.98 | 28.67 |
| 26 | `c1cnn(CC2CCCN2c2ncnc3ccsc23)c1` (stereo not given) | 18.46 | 2.682 | 6.627 | 39.55 |
| 27 | `NC(=O)C1CN(C(=O)Nc2ccccc2OCC(F)(F)F)CCO1` (stereo not given) | 5.357 | 0.5814 | 3.166 | 18.47 |
| 28 | `CN(Cc1cc(C(C)(C)C)n[nH]1)C(=O)c1cn2ccsc2n1` | 24.49 | 13 | 4.971 | -4.468 |
| 29 | `Cc1nc(C2CCCN(C(=O)CCCn3cccn3)C2)sc1C` (stereo not given) | 23.08 | 6.857 | 5.201 | 23.35 |
| 30 | `COC(=O)C1CCCCN1C(=O)c1cn(C/C=C/c2ccccc2)nn1` (stereo not given) | -10.26 | 0 | -5.601 | 28.1 & 10.93 |
| 31 | `CCN1C[C@@H]2CN(C(=O)c3cccn3C)C[C@@H]2C1=O` | 0 | -3.093 | -1.292 | - |
| 32 | `Cc1ccc(CN2CCCC3(CCCCN3S(C)(=O)=O)C2)s1.O=C(O)C(F)(F)F` (stereo not given) | - | - | - | 8.751 |
| 33 | `[H][C@@]12CCN(S(=O)(=O)C3CC3)[C@]1([H])CC[C@@H](c1nc(C)no1)O2` | - | - | - | 11.34 |
| 34 | `Cn1ncnc1NCc1ccc(Br)cc1` | -1.205 | 1.493 | -2.629 | -47.75 |
| 35 | `[H][C@]12C[C@@H](CNC(=O)c3ccsc3)O[C@]1([H])CN(C(=O)CO)C2` | - | - | - | -5.013 |
| 36 | `O=C(O)C(F)(F)F.[H][C@@]12C[C@H](C)O[C@]1([H])CCN(S(=O)(=O)c1c(C)nn(C)c1C)C2` | - | - | - | 10.19 |
| 37 | `Cn1ccc2c(C(=O)N3CC[C@@]4(O)CCCC[C@H]4C3)cccc21` | 0 | -4.094 | 4.17 | - |
| 38 | `Cc1nn(C)c(N(C)C)c1CNCc1ccnc(N2CCCC2)c1` | 18.26 | 7.887 | -1.177 | 37.58 |
| 39 | `CN(Cc1ccncn1)C(=O)C1(Oc2ccc(Cl)cc2)CCNCC1` | -2.667 | 3.804 | 4.31 | 12.34 |
| 40 | `[H][C@@]12OCCC[C@]1([H])N(S(C)(=O)=O)C[C@@H]2NC(=O)c1ccno1` | - | - | - | 14.29 |
| 41 | `Cc1ccccc1NS(=O)(=O)c1cc2c(c(C(=O)O)c1)OCCO2` | 1.515 | 4.545 | 2.466 | -27.82 |
| 42 | `COc1ccc(-n2cc(CNC(=O)c3cc[nH]n3)nn2)cc1` | 31.25 | 6.25 | 9.307 | -6.037 |
| 43 | `Cc1cc(CN2C[C@H]3CC[C@@H]2CN(Cc2[nH]cnc2C)C3)on1` | 20.83 | 3.865 | 5.878 | - |
| 44 | `CNC(=O)[C@@]12CCCN(c3ncccn3)[C@@H]1CN(C)C2` | 0.9709 | 2.174 | -5.35 | - |
| 45 | `O=C(c1cccnc1)N1CCN2C[C@H](OCc3ccccc3)C[C@H]2C1` | 2 | -6.863 | 4.926 | - |
| 46 | `CC(=O)N1CCCN(CCCSCc2ccccc2)CC1` | -0.5236 | 0.5348 | 0.667 | 23.98 |
| 47 | `O=C1CCC2(CCN(Cc3cscn3)CC2)CN1CC1CCCO1` (stereo not given) | 7.229 | -3.867 | -2.141 | 33.24 |
| 48 | `O=C(O)C(F)(F)F.O=C(c1cccc(O)c1)N1CCC2(CCN2c2ncccn2)C1` (stereo not given) | - | - | - | -14.68 |
| 49 | `CCc1nnc2n1CCN(C(=O)c1cnc3c(cnn3C(C)C)c1)C2` | 12.7 | 1.538 | 5.494 | 17.14 |
| 50 | `Cc1cc(C)n(-c2ccc(N3CCCSCC3)nc2)n1` | 19.4 | 5.319 | 3.144 | 14.12 |
| 51 | `COc1ccccc1CNC(=O)N1CCCC(CO)C1` (stereo not given) | 11.67 | 8.824 | 0.2907 | 9.858 |
| 52 | `Cc1ccc(CNCc2ccc(N3CCC(CO)CC3)nc2)c(C)c1` | 22.92 | 8.861 | 2.186 | - |
| 53 | `O=C1CC2(CCN(Cc3cccnc3)C2)CN1c1cccc(F)c1` (stereo not given) | 25 | 4.348 | 2.312 | - |

Some entries from above, unchanged:

{"compound": "Cc1cc(NC(=O)CN2CCN(c3nccs3)C(C)C2)no1", "stereo": "stereo not given", "A": 14.29, "B": -6.977, "C": 3.153, "D": 8.044}
{"compound": "Cc1cc(CN2C[C@H]3CC[C@@H]2CN(Cc2[nH]cnc2C)C3)on1", "A": 20.83, "B": 3.865, "C": 5.878}
{"compound": "CC1=N[C@@]2(CC[C@@H]3CN(CC(C)C)C[C@@H]32)C(=O)N1CC(C)C", "A": 14.71, "B": 6.897, "C": 2.763}